Some entries share one result that the patent states for a list of compounds. At least one structure is not confirmed: it was looked up by name or label, or the drawing left a doubt.
System: mouse IOP
Assay: Mouse IOP measured with the Servo-Null Micropipette System (SNMS)
Type: in vivo
Conditions: estimated from aqueous-to-droplet concentration ratio 1:100 to 1:1000
Method: Black Swiss outbred mice of mixed sex, 7 to 9 weeks old and approximately 30 g in weight, were obtained from Taconic, Inc. (Germantown, N.Y.). Animals were housed in accordance with National Institutes of Health recommendations, maintained under a 12-hour light-dark illumination cycle, and allowed unrestricted access to food and water. IOP measurements were performed at the same time of day (2-6 PM) to minimize diurnal effects on IOP. All procedures conformed to the ARVO Statement for the Use of Animals in Ophthalmic and Vision Research. […]
IOP was measured with the Servo-Null Micropipette System (SNMS), an electrophysiologic, nonmanometric method of measuring pressure, previously adapted and validated for measuring IOP in the mouse (Avila et al., 2001A). […] The resistance to electrical flow through the micropipette was continuously monitored and was dominated by the electrical resistance at the tip. […]
Using the SNMS as described above, the micropipette tip was next placed in the drop of proparacaine on the cornea overlying the pupil of the subject, and the output reading from the SNMS was adjusted to zero. […] IOP was monitored after positioning the micropipette tip in the aqueous humor. […]
To determine an individual IOP reading, the mean±SEM was calculated during a 3- to 5-minute recording period. […]

Compound | aqueous humor concentration corresponding to the minimally effective droplet concentration
CN(C)c1nc(N)c(C(=O)NC(=N)N)nc1Cl [DMA, dimethylamiloride] | 1 to 10 µM
CCN(c1nc(N)c(C(=O)NC(=N)N)nc1Cl)C(C)C [EIPA, ethylisopropylamiloride] | 1 to 10 µM
